Reference: ChEMBL document CHEMBL4513139, “CO-ADD screening of University of Strathclyde (UK) compounds”
The list shows a part of the results. Results with a measured potency or affinity are listed apart.

Test system: Acinetobacter baumannii
Settings: Concentration 32 ug.mL-1; ASSAY_TEST Inhibition of Bacterial Growth; detection method Absorption (OD600); MEDIA CAMHB; plate type 384well; NBS; CORNING #3640; time 18 hr

Compound	Inhibition
CCOP(=O)(OCC)C(Cc1cn(Cc2cnc(C)nc2N)nn1)C(=O)O.O=C(O)C(F)(F)F (stereo unspecified)	10.59%
